Among the data in PMC9657785 are binding values, retold here.

Amino acid sequences for entries named in this document (tags omitted).
UniProt O75317: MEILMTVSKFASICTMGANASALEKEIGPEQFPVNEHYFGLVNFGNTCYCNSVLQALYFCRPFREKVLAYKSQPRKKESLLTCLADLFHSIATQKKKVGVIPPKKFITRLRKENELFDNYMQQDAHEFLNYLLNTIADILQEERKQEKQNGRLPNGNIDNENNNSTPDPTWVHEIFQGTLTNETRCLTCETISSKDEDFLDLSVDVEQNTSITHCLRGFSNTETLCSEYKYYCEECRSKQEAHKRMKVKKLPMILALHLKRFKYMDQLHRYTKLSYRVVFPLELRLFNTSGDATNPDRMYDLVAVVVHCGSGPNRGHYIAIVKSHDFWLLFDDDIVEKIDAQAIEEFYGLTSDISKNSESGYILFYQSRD
UniProt Q07812: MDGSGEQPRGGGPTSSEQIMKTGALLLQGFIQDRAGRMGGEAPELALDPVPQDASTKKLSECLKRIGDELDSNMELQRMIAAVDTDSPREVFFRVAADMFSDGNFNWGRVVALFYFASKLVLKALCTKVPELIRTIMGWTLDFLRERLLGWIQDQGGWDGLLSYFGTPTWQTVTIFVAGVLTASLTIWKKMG

The target of test [1] is ubiquitin-specific protease 12 (USP12), yeast two-hybrid bait (human (cDNA from HeLa cells)) (UniProt O75317). As to the kind of experiment: two-hybrid; AH109 yeast; USP family members as bait (-Trp), then pGAD424-Bax; -Leu/-Trp minimal medium plates with 4 mg/mL X-α-gal; blue colonies.
Test [2] has as its target Bax, as used in the immunoprecipitation (human (cDNA from HeLa cells)) (UniProt Q07812). As to the kind of experiment: co-IP; cell lysates rotated with antibodies at 4 °C overnight, Protein A/G PLUS agarose beads 2 h; lysis buffer 50 mM Tris-HCl pH 7.5, 1 mM EDTA, 10% glycerol, 300 mM NaCl, 1% Triton X-100.

No constants are given. Whether binding was seen depends on the method and setting. For some assays here: Binding seen in cells or lysates may run through a third protein. Some results given as binding are weak or reduced against the parent protein; the word gives no strength.

With “Bax, yeast two-hybrid prey (pGAD424-Bax) (from UniProt Q07812 1-192)”, the binding result in test [1] is listed as “binds”.
Consider “ubiquitin-specific protease 12 (USP12), as used in the immunoprecipitation and GST pull-down (from UniProt O75317 1-370) (enzyme)”, for which the binding result in test [2] was “binds”.
